Assay results reported in publication PMC13248759.

Chains of the proteins cited; added tags and fusions are not shown.
UniProt Q9Y5X1: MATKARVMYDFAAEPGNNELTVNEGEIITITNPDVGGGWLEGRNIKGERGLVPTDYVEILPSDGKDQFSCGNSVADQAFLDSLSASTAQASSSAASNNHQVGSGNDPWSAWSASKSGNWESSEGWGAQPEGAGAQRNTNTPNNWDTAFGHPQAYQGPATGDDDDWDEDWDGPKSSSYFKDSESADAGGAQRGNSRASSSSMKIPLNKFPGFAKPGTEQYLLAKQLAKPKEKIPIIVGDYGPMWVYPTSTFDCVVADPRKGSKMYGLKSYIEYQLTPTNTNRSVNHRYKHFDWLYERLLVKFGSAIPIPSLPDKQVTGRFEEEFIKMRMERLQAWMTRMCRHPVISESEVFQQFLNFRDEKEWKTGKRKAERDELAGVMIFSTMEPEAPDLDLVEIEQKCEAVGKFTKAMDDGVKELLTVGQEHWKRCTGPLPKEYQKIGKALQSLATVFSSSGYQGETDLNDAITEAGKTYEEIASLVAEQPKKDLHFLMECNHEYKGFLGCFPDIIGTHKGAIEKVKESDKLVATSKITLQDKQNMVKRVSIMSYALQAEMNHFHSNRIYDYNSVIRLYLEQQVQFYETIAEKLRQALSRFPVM

Target: T1, NUMB-1-FLAG (human) (UniProt P49757)
T1 sequence: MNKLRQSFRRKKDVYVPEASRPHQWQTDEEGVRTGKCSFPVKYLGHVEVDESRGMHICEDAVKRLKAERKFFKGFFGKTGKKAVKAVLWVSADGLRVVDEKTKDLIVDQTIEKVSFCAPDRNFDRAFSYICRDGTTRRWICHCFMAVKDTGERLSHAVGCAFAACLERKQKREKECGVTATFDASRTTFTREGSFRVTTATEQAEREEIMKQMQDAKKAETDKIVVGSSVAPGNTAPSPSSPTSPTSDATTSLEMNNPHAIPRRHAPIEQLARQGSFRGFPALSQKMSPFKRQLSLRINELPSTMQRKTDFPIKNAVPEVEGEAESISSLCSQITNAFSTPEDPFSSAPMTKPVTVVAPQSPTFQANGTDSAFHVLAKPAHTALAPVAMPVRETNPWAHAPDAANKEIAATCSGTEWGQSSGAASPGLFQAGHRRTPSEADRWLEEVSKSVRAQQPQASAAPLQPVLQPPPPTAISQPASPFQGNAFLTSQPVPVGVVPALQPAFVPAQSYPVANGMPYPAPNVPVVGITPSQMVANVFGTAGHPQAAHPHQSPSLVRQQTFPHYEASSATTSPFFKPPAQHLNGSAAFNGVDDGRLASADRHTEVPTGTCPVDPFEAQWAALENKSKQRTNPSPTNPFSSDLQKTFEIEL
Assay: affinity purification with mass spectrometry; lysates of HEK-293 cells transfected with FLAG-tagged NUMB isoforms 1-4, anti-FLAG immunoprecipitation, gel lanes digested and analysed by LC-MS/MS

binding: binds
Substance: sorting nexin 9 (SNX9), endogenous (from UniProt Q9Y5X1 1-595)

Results are given in words; binding and its absence hold for the method and conditions named. Binding seen in cells or lysates may run through a third protein. A yes stands for co-enrichment or nearness to the bait. Other partners may have been found. Sequences can lack the tags named with a protein.
